This passage reports binding results from publication PMC5943355.

Chains of the proteins cited; added tags and fusions are not shown. Lines headed by an entry give the natural chain unless they say otherwise; changes in a name come on top.
UniProt Q9R1N3: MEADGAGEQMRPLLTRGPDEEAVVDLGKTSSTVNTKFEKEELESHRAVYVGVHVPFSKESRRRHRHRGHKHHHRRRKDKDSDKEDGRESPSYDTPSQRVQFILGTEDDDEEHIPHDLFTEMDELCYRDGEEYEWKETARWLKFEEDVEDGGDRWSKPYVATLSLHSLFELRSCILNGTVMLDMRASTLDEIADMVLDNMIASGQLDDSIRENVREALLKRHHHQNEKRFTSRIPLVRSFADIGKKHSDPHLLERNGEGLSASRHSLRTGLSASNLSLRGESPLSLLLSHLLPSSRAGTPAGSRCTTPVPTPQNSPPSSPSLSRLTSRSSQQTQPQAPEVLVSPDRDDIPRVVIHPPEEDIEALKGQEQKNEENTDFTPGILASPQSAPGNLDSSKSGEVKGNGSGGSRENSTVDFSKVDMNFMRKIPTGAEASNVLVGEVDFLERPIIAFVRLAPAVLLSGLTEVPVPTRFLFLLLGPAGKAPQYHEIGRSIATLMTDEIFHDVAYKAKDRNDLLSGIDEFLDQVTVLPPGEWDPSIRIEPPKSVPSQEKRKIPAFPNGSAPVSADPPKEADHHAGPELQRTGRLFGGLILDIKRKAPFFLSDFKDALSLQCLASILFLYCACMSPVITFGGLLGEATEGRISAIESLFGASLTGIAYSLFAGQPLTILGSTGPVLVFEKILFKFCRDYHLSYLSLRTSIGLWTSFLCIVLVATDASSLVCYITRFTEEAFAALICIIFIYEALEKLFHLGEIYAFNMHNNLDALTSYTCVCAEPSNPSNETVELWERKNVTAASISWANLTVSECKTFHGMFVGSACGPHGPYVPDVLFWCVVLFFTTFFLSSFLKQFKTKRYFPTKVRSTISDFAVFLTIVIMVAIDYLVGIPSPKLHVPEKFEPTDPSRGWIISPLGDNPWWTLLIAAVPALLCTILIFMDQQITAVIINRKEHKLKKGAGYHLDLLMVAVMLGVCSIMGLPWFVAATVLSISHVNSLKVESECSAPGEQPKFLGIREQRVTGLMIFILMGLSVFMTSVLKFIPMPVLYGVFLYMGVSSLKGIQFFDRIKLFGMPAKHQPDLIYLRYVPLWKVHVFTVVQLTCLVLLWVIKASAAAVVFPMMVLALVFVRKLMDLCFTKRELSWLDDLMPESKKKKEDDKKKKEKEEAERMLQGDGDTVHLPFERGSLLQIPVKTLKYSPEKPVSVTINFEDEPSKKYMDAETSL
UniProt Q86TM6: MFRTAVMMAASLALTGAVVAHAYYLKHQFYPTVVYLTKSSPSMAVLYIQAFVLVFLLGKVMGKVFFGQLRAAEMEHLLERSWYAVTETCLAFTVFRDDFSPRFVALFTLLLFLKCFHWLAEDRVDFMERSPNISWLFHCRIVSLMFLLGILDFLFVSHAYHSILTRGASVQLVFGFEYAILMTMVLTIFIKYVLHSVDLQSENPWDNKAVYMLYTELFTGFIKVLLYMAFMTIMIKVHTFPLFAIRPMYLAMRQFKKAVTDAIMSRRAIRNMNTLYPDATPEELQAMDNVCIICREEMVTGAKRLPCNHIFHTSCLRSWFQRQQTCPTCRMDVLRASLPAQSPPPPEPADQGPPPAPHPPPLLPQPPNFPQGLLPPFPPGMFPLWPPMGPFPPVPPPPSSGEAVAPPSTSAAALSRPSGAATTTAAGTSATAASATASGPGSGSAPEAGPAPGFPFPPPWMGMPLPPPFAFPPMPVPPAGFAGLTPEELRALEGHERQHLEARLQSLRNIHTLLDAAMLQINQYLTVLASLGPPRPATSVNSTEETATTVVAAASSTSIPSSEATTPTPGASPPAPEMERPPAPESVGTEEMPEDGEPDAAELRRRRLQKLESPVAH
UniProt Q4G0F5: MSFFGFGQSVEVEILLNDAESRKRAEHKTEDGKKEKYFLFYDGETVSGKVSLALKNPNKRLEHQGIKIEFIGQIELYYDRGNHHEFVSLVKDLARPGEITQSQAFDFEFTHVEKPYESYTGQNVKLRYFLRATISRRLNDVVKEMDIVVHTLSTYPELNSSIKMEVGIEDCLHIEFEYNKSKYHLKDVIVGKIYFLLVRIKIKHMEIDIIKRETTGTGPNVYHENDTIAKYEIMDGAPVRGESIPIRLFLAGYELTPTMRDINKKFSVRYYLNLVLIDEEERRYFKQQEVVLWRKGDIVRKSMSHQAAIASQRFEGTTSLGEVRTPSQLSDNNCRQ
UniProt P51148: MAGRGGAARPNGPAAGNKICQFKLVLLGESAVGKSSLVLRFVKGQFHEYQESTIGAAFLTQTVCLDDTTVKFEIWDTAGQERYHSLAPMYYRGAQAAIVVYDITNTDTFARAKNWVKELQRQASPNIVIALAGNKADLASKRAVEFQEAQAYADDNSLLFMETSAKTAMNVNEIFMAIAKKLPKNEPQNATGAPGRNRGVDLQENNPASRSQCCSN
UniProt P61088: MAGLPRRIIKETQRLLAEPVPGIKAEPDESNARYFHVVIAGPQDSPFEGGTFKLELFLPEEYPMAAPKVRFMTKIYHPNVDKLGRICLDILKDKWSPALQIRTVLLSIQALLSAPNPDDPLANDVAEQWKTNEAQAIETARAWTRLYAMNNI
UniProt P61006: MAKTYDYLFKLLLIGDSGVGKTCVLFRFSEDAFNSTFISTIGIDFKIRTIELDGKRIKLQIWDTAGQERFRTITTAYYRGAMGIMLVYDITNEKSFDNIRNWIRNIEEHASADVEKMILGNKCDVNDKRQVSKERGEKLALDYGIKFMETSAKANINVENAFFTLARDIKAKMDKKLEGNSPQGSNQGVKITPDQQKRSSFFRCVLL
UniProt P20339: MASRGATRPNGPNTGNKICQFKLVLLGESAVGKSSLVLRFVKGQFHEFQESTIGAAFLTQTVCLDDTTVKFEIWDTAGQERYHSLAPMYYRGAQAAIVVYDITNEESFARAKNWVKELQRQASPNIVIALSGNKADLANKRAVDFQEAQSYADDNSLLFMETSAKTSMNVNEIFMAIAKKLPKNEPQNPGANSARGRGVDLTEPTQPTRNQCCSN
UniProt Q96CW1: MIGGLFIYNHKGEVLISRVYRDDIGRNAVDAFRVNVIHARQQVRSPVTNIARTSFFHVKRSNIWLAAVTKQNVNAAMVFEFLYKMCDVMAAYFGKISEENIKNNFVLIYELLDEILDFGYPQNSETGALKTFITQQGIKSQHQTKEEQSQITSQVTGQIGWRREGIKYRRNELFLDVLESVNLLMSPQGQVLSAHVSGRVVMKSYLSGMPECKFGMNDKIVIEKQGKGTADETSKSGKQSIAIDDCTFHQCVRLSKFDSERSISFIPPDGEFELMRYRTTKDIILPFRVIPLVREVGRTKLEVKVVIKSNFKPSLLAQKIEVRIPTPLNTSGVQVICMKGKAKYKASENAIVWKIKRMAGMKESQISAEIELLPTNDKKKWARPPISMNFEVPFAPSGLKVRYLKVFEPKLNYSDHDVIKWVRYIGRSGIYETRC
UniProt O95782: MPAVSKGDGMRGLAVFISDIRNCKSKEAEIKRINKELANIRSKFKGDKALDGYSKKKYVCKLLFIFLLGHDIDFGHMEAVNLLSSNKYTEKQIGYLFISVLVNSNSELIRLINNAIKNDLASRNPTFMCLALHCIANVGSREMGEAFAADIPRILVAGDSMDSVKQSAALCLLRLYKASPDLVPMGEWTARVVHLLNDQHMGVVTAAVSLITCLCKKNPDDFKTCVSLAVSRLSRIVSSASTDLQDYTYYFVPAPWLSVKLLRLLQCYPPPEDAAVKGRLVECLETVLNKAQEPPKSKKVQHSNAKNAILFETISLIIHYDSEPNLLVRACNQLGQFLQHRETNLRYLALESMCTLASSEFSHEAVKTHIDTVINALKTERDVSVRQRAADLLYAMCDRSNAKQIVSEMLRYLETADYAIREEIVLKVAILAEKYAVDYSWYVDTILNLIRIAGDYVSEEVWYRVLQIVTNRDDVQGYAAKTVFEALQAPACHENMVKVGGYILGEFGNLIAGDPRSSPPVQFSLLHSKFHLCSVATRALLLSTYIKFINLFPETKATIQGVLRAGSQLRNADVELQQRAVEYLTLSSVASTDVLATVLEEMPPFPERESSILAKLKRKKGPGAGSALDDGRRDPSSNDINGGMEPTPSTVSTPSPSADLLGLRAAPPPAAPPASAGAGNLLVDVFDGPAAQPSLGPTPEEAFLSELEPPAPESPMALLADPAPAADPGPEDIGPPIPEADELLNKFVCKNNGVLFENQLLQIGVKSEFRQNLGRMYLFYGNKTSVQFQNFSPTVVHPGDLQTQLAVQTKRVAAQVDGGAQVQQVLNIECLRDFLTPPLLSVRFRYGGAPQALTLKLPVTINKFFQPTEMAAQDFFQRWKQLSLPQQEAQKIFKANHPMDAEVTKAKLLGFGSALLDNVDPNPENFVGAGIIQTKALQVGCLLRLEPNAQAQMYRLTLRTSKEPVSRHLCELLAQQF
UniProt Q13596: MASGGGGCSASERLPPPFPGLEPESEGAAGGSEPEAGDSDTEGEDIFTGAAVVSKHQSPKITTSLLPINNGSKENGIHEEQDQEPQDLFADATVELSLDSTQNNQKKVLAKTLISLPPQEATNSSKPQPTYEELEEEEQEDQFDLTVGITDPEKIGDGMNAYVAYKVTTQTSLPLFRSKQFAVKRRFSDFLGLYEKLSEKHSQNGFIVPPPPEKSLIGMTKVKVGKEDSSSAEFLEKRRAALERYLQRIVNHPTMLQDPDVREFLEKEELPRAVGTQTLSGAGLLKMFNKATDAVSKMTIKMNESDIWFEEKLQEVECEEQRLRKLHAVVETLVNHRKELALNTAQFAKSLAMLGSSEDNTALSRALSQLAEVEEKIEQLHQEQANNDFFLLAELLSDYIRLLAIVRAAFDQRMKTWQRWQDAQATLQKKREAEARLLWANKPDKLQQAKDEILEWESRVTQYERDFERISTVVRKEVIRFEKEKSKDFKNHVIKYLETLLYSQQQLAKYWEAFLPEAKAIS
UniProt Q14160: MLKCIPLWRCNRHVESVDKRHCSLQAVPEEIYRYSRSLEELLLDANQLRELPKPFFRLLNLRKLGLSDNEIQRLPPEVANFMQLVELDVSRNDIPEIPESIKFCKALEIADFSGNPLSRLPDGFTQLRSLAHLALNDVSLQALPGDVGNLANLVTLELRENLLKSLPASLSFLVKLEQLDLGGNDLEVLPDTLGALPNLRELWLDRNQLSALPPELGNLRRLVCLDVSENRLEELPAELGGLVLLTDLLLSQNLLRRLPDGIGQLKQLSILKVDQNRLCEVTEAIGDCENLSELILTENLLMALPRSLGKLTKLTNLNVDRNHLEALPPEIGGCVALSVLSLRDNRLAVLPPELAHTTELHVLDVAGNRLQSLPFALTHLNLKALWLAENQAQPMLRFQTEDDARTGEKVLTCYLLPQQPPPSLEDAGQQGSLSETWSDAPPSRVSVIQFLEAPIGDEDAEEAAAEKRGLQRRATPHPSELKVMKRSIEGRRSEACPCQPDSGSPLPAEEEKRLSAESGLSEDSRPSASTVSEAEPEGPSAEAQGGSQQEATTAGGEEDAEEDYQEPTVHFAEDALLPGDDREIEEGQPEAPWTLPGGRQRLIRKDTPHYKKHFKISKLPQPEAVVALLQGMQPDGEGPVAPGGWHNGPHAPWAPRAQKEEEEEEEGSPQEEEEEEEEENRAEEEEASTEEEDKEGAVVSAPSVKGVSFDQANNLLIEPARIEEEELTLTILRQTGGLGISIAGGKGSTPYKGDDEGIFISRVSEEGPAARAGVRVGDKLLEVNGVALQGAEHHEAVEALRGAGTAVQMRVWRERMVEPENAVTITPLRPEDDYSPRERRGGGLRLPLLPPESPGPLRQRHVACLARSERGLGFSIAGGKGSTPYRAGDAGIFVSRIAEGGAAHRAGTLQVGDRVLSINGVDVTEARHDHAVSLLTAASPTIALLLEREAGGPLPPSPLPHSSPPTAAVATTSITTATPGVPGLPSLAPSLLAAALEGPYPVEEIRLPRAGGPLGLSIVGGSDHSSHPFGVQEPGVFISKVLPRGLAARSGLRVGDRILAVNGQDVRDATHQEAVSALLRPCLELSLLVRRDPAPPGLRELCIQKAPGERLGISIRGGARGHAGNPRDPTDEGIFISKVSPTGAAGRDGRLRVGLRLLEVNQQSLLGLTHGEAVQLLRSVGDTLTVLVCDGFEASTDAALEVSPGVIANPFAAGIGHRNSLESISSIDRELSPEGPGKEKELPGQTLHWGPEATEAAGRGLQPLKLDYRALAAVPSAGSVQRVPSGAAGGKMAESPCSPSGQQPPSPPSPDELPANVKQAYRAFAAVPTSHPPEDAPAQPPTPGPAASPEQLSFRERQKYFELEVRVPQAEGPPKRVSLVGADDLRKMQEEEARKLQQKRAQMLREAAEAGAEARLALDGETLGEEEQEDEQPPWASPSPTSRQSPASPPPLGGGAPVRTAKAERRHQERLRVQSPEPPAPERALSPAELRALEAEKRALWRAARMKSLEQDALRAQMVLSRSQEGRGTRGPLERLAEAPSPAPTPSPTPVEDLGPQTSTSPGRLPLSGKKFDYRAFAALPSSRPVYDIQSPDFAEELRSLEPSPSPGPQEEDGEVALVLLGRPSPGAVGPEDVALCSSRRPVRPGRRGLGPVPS

These are yes or no findings as the source states them, for the method shown. Binding seen in cells or lysates may run through a third protein. These calls come from enrichment with a bait or labelling near it, and not all partners need be listed.

This experiment deals with NBCn1 C-terminal-GST (GST-tagged C-terminal tail of rat NBCn1-D) (rat) (UniProt Q9R1N3). Nature of the experiment: affinity purification with mass spectrometry; NBCn1-C-GST bound to glutathione agarose beads, added to MCF-7 cell lysate (80 mM Tris-HCl pH 7.5, 200 mM NaCl, 1% Triton-X-100), 2 h at 4 °C; GST-only beads as control; LC-MS; an independent experiment in MCF-7 cells expressing p95HER2 yielded similar results; only the target purified.

Take “SYVN1, Ubiquitin ligase (E3) (from UniProt Q86TM6 1-617) (enzyme)”: the binding result is reported as “binds”. VPS26b (from UniProt Q4G0F5 1-336): the binding result is “binds”. As for “Ras-related protein 5C (from UniProt P51148 1-216)”, the entry is “binds”. On to “UBE2N, Ubiquitin conjugated enzyme (E2) (from UniProt P61088 1-152)”, for which the binding result is reported as “binds”. Consider Cortactin (from UniProt Q14247 1-550), for which the binding entry is on record as “binds”. As for “Ras-related protein 8A (from UniProt P61006 1-207)”, the entry is “binds”; as for “AP-2 subunit beta (from UniProt P63010 1-937)”, “binds”. For the molecule “EEA1 (printed protein ID: Early endosome) (from UniProt Q15075 1-1411)”, the binding entry was “binds”. With “Ras-related protein 5A (from UniProt P20339 1-215)” the entry was “binds”. As for “AP-2 subunit mu (from UniProt Q96CW1 1-435)”, the entry is “binds”. As for VPS26a (from UniProt O75436 1-327), the entry is “binds”.

On to “AP-2 subunit alpha-1 (from UniProt O95782 1-977)”, for which the binding result is on record as “binds”.

Consider “HUWE1, Ubiquitin ligase (E3) (from UniProt Q7Z6Z7 1-4374) (enzyme)”, for which the binding entry was “binds”. Take SNX1 (from UniProt Q13596 1-522): the binding entry is given as “binds”. With “STUB1, Ubiquitin ligase (E3) (from UniProt Q9UNE7 1-303) (enzyme)”, the binding result is recorded as “binds”. With Scribble (from UniProt Q14160 1-1655) the entry was “binds”; with “UBR4, Ubiquitin ligase (E3) (from UniProt Q5T4S7 1-5183) (enzyme)”, “binds”. Regarding “Clathrin heavy chain 1 (from UniProt Q00610 1-1675)”, the binding result is “binds”. As for “Ubiquitin activating enzyme 1 (E1) (from UniProt P22314 1-1058)”, the entry is “binds”.

B1: Ubiquitin activating enzyme 6 (E1) (enzyme, UniProt A0AVT1 1-1052)
chain: MEGSEPVAAHQGEEASCSSWGTGSTNKNLPIMSTASVEIDDALYSRQRYVLGDTAMQKMAKSHVFLSGMGGLGLEIAKNLVLAGIKAVTIHDTEKCQAWDLGTNFFLSEDDVVNKRNRAEAVLKHIAELNPYVHVTSSSVPFNETTDLSFLDKYQCVVLTEMKLPLQKKINDFCRSQCPPIKFISADVHGIWSRLFCDFGDEFEVLDTTGEEPKEIFISNITQANPGIVTCLENHPHKLETGQFLTFREINGMTGLNGSIQQITVISPFSFSIGDTTELEPYLHGGIAVQVKTPKTVFFESLERQLKHPKCLIVDFSNPEAPLEIHTAMLALDQFQEKYSRKPNVGCQQDSEELLKLATSISETLEEKPDVNADIVHWLSWTAQGFLSPLAAAVGGVASQEVLKAVTGKFSPLCQWLYLEAADIVESLGKPECEEFLPRGDRYDALRACIGDTLCQKLQNLNIFLVGCGAIGCEMLKNFALLGVGTSKEKGMITVTDPDLIEKSNLNRQFLFRPHHIQKPKSYTAADATLKINSQIKIDAHLNKVCPTTETIYNDEFYTKQDVIITALDNVEARRYVDSRCLANLRPLLDSGTMGTKGHTEVIVPHLTESYNSHRDPPEEEIPFCTLKSFPAAIEHTIQWARDKFESSFSHKPSLFNKFWQTYSSAEEVLQKIQSGHSLEGCFQVIKLLSRRPRNWSQCVELARLKFEKYFNHKALQLLHCFPLDIRLKDGSLFWQSPKRPPSPIKFDLNEPLHLSFLQNAAKLYATVYCIPFAEEDLSADALLNILSEVKIQEFKPSNKVVQTDETARKPDHVPISSEDERNAIFQLEKAILSNEATKSDLQMAVLSFEKDDDHNGHIDFITAASNLRAKMYSIEPADRFKTKRIAGKIIPAIATTTATVSGLVALEMIKVTGGYPFEAYKNCFLNLAIPIVVFTETTEVRKTKIRNGISFTIWDRWTVHGKEDFTLLDFINAVKEKYGIEPTMVVQGVKMLYVPVMPGHAKRLKLTMHKLVKPTTEKKYVDLTVSFAPDIDGDEDLPGPPVRYYFSHDTD
In the case of B1, the binding result is reported as “binds”.

B2: Lethal giant larvae 1 (protein, UniProt Q15334 1-1064)
chain: MMKFRFRRQGADPQREKLKQELFAFNKTVEHGFPNQPSALAFDPELRIMAIGTRSGAVKIYGAPGVEFTGLHRDAATVTQMHFLTGQGRLLSLLDDSSLHLWEIVHHNGCAHLEEALSFQLPSRPGFDGASAPLSLTRVTVVLLVAASDIAALGTEGSSVFFLDVTTLTLLEGQTLAPGEVLRSVPDDYRCGKALGPVESLQGHLRDPTKILIGYSRGLLVIWNQASQCVDHIFLGNQQLESLCWGRDSSTVVSSHSDGSYAVWSVDAGSFPTLQPTVATTPYGPFPCKAINKILWRNCESGGHFIIFSGGMPRASYGDRHCVSVLRAETLVTLDFTSRIIDFFTVHSTRPEDEFDDPQALAVLLEEELVVLDLQTPGWPAVPAPYLAPLHSSAITCSAHVASVPAKLWARIVSAGEQQSPQPVSSALSWPITGGRNLAQEPSQRGLLLTGHEDGTVRFWDASGVALRPLYKLSTAGLFQTDCEHADSLAQAAEDDWPPFRKVGCFDPYSDDPRLGVQKVALCKYTAQMVVAGTAGQVLVLELSDVPVEQAVSVAIIDLLQDREGFTWKGHERLSPRTGPLPWPAGFQPRVLVQCLPPAAVTAVTLHTEWSLVAFGTSHGFGLFDYQRKSPVLARCTLHPNDSLAMEGPLSRVKSLKKSLRQSFRRIRKSRVSGKKRAANASSKLQEANAQLAEQACPHDVEMTPVQRRIEPRSADDSLSGVVRCLYFADTFLRDGAHHGPTMWAGTNSGSVFAYALEVPAAAVGGEKRPEQAVEAVLGKEVQLMHRAPVVAIAVLDGRGRPLPEPYEASRDLAQAPDMQGGHAVLIASEEQFKVFTLPKVSAKTKFKLTAHEGCRVRKVALATFASVACEDYAETCLACLTNLGDVHVFSVPGLRPQVHYSCIRKEDISGIASCVFTRHGQGFYLISPSEFERFSLSARNITEPLCSLDINWPRDATQASYRIRESPKLSQANGTPSILLAPQSLDGSPDPAHSMGPDTPEPPEAALSPMSIDSATSADTTLDTTGDVTVEDVKDFLGSSEESEKNLRNLAEDEAHACAILIK
Consider B2, for which the binding result is recorded as “binds”.

B3: Clathrin light chain A (protein, UniProt P09496 1-248)
chain: MAELDPFGAPAGAPGGPALGNGVAGAGEEDPAAAFLAQQESEIAGIENDEAFAILDGGAPGPQPHGEPPGGPDAVDGVMNGEYYQESNGPTDSYAAISQVDRLQSEPESIRKWREEQMERLEALDANSRKQEAEWKEKAIKELEEWYARQDEQLQKTKANNRVADEAFYKQPFADVIGYVTNINHPCYSLEQAAEEAFVNDIDESSPGTEWERVARLCDFNPKSSKQAKDVSRMRSVLISLKQAPLVH
With B3, the binding entry is recorded as “binds”.

B4: Ras-related protein 5B (protein, UniProt P61020 1-215)
chain: MTSRSTARPNGQPQASKICQFKLVLLGESAVGKSSLVLRFVKGQFHEYQESTIGAAFLTQSVCLDDTTVKFEIWDTAGQERYHSLAPMYYRGAQAAIVVYDITNQETFARAKTWVKELQRQASPSIVIALAGNKADLANKRMVEYEEAQAYADDNSLLFMETSAKTAMNVNDLFLAIAKKLPKSEPQNLGGAAGRSRGVDLHEQSQQNKSQCCSN
In the case of B4, the binding result is listed as “binds”.
